For at least one compound, name, drawing or mass did not settle the structure.
Legend:
[1] = system: Osr1-GFP+ cells from the caudal part of E9.5 embryos; experiment: Culture of sorted E9.5 posterior Osr1-GFP+ cell aggregates, then colony-formation assay on Wnt4 feeder cells; type: cell-based, mouse; conditions: exogenous addition to aggregate culture
Procedure: In vitro colony-formation assays were performed as described previously (Osafune et al., 2006). Briefly, progenitor cells were sorted by a FACS Aria II (Becton Dickinson) and plated onto NIH3T3 cells stably expressing Wnt4 at a low density (1,250-10,000 cells/well of 6-well plates). The cells were then cultured in DMEM/F12 containing 5% knockout serum replacement (Invitrogen), 10 μg/ml insulin, 6.7 μg/1 sodium selenite, 5.5 μg/ml transferrin, 1×10^−7 mol/l dexamethasone, 10 mmol/l nicotinamide, 2 mmol/l L-glutamine, 50 μmol/l 2-mercaptoethanol, 5 mmol/l HEPES and penicillin/streptomycin.
For embryonic tissue cultures at E8.5, the presomitic regions of 6-10 somite-stage embryos were harvested and T-GFP+ cells were sorted by FACS. The sorted cells were aggregated at 7,000 cells per aggregate in 96-well low-cell-binding plates and cultured in serum-free chemically-defined medium. […]
Induced cell aggregates from embryonic tissues or ES cells were dissociated by incubation with 0.25% trypsin for 5 min. […] Data were analyzed with FlowJo software (Treestar).
RNA was isolated using an RNeasy Plus Micro Kit (Qiagen), and then reverse-transcribed with random primers and Superscript III (Invitrogen). Quantitative PCR was carried out using a Real-Time PCR System (Applied Biosystems) and Thunderbird SYBR qPCR Mix (Toyobo). […]

[2] = system: sorted E8.5 T+ posterior mesoderm; experiment: Induction of metanephric nephron progenitors from sorted E8.5 T+ posterior mesoderm; type: cell-based, mouse; conditions: addition in the first posteriorization step

CC1=C(/C=C/C(C)=C/C=C/C(C)=C/C(=O)O)C(C)(C)CCC1 [retinoic acid]
induction of colony-forming progenitors and nephric gene expressions [1]: inhibitory | colony-forming progenitor induction [2]: completely inhibited

— patent publication US10072249B2, “Method of inducing kidney from pluripotent stem cells” (NATIONAL UNIVERSITY CORPORATION KUMAMOTO UNIVERSITY, priority 2013, dated 2018)
